Assay results: the supplement of paper PMC10849652
This is one part of the list.

The chains behind the UniProt entries cited, without tags or fusion partners. Where a name states a change or a piece, a line headed by the entry shows the natural chain unless it says otherwise.
UniProt P43155: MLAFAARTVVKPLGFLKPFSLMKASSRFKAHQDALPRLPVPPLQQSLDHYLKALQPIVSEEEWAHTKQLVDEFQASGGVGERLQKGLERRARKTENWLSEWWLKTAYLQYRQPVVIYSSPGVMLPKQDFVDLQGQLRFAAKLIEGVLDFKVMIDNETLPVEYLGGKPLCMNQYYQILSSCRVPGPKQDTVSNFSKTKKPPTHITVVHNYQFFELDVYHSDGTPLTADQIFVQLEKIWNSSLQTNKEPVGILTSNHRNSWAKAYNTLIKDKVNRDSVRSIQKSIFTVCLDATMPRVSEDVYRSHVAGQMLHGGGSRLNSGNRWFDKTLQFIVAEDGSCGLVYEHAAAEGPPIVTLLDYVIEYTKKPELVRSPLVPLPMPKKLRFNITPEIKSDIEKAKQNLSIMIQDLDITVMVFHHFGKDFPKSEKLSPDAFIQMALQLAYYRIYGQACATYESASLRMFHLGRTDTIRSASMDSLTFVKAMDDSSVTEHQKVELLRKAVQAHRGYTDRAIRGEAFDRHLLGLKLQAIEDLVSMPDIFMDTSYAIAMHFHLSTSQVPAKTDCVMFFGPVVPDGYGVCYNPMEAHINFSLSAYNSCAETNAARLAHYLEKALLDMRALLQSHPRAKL
UniProt P67870, whole entry, looked up: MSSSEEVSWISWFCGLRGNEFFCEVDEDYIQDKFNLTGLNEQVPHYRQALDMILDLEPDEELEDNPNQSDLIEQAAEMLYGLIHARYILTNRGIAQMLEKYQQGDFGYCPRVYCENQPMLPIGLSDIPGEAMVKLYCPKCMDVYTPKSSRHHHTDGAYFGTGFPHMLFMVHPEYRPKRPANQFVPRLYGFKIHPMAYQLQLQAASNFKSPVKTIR
UniProt P08574: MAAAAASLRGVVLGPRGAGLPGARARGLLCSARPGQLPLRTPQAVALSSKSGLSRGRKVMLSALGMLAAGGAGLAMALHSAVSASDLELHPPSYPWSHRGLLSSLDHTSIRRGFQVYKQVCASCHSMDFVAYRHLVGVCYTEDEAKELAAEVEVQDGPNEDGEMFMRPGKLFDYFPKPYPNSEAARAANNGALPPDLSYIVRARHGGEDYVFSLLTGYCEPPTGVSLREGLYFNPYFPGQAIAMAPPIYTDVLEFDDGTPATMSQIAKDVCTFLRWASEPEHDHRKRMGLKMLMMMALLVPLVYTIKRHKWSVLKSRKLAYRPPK
UniProt P00387: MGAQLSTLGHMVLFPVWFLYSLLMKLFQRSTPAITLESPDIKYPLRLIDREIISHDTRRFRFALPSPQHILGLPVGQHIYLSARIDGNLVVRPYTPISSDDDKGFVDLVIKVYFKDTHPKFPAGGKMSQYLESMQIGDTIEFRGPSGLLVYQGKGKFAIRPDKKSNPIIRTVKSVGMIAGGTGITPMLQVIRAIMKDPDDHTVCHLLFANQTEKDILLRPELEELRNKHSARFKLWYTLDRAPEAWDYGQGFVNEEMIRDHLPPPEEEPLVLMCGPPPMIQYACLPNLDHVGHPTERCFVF
UniProt P0DMU9: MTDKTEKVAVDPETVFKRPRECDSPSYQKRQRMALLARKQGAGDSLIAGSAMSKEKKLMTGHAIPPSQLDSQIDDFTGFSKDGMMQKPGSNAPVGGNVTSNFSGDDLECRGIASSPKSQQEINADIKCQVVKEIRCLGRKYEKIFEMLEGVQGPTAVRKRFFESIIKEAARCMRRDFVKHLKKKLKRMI
UniProt Q13619, whole entry, looked up: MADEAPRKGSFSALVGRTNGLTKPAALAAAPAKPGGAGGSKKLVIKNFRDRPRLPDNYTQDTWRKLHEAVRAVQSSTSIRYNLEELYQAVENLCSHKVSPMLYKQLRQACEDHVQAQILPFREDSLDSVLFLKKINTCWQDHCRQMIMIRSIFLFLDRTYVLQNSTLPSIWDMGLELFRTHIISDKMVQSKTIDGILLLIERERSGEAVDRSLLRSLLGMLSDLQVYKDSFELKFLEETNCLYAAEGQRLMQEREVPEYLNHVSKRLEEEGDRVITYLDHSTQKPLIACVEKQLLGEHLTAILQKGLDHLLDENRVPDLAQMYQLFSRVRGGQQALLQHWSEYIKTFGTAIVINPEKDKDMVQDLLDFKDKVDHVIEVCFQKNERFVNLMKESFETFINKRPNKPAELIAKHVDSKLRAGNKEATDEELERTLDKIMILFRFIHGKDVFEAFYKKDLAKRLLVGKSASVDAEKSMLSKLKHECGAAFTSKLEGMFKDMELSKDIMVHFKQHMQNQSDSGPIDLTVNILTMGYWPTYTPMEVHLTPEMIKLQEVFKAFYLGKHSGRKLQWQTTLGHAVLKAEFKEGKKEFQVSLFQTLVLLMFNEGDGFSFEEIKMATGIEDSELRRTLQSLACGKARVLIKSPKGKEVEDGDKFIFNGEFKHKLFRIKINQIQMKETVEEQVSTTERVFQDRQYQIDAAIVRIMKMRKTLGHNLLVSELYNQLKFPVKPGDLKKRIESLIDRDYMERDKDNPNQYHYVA
UniProt Q9H467: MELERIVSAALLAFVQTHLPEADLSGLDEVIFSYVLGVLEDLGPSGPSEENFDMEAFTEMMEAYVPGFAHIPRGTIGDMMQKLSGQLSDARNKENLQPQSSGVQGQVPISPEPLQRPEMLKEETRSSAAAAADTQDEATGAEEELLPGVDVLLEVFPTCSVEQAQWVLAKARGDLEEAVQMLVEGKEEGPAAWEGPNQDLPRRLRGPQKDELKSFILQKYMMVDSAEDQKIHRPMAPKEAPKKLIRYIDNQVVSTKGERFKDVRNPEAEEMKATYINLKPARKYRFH
UniProt P50461: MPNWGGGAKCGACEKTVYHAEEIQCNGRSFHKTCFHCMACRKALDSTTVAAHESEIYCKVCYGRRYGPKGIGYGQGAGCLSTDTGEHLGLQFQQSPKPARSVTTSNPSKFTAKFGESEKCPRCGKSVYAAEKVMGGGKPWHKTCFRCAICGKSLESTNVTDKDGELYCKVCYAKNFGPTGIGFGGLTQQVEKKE
UniProt E9PJD7, whole entry, looked up: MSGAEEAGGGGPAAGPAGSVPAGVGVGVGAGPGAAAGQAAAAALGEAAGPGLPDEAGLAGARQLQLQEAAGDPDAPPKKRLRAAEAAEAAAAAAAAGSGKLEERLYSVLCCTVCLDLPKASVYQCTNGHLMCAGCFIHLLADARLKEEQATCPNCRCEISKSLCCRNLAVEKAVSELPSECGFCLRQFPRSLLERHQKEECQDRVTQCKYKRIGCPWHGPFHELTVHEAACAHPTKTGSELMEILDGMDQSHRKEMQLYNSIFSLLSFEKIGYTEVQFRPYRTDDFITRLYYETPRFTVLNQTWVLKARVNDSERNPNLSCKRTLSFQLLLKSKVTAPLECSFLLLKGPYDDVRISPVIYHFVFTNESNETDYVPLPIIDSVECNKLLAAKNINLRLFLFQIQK
UniProt Q13620, whole entry, looked up: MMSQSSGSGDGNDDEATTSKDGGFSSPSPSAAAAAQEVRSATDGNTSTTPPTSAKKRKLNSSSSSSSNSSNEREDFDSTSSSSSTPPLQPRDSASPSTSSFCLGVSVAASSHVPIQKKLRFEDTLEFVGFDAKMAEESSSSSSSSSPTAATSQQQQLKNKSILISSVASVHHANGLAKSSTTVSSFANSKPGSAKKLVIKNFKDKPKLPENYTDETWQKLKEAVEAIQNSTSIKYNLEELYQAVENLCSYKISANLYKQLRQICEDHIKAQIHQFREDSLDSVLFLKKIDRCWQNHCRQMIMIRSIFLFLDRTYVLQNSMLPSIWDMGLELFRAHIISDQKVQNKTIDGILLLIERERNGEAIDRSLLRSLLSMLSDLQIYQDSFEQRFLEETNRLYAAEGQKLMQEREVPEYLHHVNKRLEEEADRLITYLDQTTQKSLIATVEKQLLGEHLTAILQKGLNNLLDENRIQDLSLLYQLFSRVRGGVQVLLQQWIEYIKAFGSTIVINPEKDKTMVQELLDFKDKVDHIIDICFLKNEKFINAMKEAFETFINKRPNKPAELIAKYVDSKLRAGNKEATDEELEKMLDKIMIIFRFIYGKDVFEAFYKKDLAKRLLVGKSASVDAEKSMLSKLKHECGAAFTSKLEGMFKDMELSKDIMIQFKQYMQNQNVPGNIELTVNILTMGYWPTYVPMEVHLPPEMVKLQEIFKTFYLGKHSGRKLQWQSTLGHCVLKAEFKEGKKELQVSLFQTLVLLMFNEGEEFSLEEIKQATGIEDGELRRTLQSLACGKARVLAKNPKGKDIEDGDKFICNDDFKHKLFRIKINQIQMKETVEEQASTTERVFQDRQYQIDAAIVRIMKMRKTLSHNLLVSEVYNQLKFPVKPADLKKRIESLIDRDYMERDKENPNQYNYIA
UniProt Q96HD1: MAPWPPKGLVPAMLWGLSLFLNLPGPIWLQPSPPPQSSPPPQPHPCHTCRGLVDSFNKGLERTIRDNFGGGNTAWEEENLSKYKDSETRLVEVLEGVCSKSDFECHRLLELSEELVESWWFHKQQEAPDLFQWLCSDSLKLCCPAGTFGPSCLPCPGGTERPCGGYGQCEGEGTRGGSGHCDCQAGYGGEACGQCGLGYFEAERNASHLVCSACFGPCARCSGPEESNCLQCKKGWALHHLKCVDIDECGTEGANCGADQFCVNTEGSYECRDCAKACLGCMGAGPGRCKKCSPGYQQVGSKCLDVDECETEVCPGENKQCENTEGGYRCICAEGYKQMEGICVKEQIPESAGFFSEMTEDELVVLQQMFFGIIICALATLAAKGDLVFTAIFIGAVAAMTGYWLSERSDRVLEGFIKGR
UniProt Q8IUI8: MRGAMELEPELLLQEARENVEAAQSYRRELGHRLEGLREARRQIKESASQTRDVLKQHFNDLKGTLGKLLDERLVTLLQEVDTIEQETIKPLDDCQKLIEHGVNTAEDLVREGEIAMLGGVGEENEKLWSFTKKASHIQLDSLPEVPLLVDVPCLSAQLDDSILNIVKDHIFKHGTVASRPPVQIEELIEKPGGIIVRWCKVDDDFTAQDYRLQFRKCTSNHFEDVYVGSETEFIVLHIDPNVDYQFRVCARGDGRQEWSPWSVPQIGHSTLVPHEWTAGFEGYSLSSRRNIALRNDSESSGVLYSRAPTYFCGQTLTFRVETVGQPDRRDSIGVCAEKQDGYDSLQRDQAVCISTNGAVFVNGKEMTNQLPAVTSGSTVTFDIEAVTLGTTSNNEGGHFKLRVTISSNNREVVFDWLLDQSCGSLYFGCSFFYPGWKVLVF
UniProt P09668: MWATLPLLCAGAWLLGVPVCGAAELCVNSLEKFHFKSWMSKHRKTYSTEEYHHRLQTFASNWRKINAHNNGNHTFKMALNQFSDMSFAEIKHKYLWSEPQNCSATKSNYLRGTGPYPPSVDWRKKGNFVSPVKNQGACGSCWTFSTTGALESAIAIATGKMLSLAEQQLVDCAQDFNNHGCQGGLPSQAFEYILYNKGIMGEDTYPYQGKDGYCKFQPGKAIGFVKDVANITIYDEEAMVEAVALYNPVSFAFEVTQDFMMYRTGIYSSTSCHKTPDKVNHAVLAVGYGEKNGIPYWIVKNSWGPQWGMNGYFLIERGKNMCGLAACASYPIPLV
UniProt P04080: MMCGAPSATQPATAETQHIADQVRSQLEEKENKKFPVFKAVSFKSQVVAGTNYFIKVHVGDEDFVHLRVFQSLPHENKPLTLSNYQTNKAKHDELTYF
UniProt P49447: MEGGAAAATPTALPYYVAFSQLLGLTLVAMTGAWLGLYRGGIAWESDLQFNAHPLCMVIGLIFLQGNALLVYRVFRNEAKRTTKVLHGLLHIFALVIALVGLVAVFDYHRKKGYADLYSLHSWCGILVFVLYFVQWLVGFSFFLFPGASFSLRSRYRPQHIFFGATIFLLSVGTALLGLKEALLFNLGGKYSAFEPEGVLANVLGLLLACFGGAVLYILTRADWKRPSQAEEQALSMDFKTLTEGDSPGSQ
UniProt P07711: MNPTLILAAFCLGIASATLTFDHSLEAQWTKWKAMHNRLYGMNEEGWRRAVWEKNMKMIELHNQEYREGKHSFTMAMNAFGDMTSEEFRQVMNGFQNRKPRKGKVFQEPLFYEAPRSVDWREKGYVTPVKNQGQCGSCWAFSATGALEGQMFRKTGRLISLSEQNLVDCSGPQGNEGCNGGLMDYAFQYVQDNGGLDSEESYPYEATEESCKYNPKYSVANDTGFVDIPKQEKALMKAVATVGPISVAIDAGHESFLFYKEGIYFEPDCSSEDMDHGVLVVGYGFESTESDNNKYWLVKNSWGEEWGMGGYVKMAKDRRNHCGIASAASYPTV
UniProt P78368: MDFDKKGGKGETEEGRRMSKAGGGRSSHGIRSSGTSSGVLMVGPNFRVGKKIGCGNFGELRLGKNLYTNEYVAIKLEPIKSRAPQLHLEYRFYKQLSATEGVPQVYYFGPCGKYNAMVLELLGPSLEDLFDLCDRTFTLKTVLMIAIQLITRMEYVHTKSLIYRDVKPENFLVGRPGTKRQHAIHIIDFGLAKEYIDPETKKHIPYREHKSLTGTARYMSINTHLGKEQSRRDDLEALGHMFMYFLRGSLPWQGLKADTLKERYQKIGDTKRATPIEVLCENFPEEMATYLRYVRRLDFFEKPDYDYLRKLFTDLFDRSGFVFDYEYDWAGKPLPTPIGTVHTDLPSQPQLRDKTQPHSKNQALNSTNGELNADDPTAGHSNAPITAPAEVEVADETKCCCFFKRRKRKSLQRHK

Key:
Assay in all cases: log2 fold change, soluble protein after heating vs DMSO (PISA); higher = thermal stabilisation; K562 lysate, 10 uM; active = over 0.2 and 3.5 SD of the protein, either way, in both replicates (recomputed)
[1] = compound: C1=CC=C(C=C1)[C@H](COC2=CC3=C(C=C2)NC(=O)N3)NC(=O)C4=CC=CN(C4=O)CC5=CC(=C(C=C5)F)F
How it was run: (§1)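 A 30 min treatment with 10 μM compound was applied to crude K562 extract at 1 mg/mL protein in PBS pH 7.4 with 1 mM MgCl2. Heating for 3 min spanned 48°C-58°C, after which aliquots were pooled, adjusted to 0.5% NP-40 at 4°C and spun at 21,000xg for 90 min. TMTpro 16plex LC-MS/MS of the supernatant, with channel sums equalised, gave values recorded as log-two fold change in thermal stability against solvent controls, from duplicates.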

[2] = compound: CC1=C(SC2=C1C(=N[C@H](C3=NN=C(N32)C)CC(=O)N)C4=CC=C(C=C4)Cl)C
How it was run: as §1

[3] = compound: CC1=C2C(=CC=C1)N=C(N(C2=O)C3=CC=CC=C3C)CN4C=NC5=C(N=CN=C54)N
How it was run: as §1

[4] = compound: Cc1sc2c(c1C)C(c1ccc(Cl)cc1)=N[C@@H](CC(=O)OC(C)(C)C)c1nnc(C)n1-2
How it was run: as §1

[5] = compound: c1ccc([C@@H]2C[C@H]2NC2CCNCC2)cc1
How it was run: as §1

Measured: log2 fold change

CT47A1 (UniProt Q5JQC4)
inactive: [1] -0.033 | [2] 0.071 | [3] -0.131 | [4] 0.007 | [5] 0.016

CRAT (UniProt P43155)
inactive: [1] -0.043 | [2] 0.057 | [3] 0.064 | [4] 0.007

CSTF2T (UniProt Q9H0L4)
inactive: [1] 0 | [2] -0.025 | [3] 0.008 | [4] 0.034 | [5] 0.007

CSNK2B (UniProt P67870)
inactive: [1] -0.02 | [2] 0.024 | [3] -0.068 | [4] 0.03 | [5] -0.016

CYB5R1 (UniProt Q9UHQ9)
inactive: [1] 0.03 | [2] -0.063 | [3] -0.031 | [4] 0.059 | [5] 0

CYC1 (UniProt P08574)
inactive: [1] 0.006 | [2] 0 | [3] -0.046 | [4] 0.069 | [5] -0.014

CYB5R3 isoform 3 (UniProt P00387)
inactive: [1] 0.035 | [2] -0.03 | [3] 0.007 | [4] 0.008 | [5] 0.02

CUTC (UniProt Q9NTM9)
inactive: [1] 0.018 | [2] 0.057 | [3] 0.012 | [4] -0.006 | [5] -0.042

CTCFL isoform 7 (UniProt Q8NI51)
inactive: [1] 0.002 | [2] 0.049

CT45A10 (UniProt P0DMU9)
inactive: [1] 0.019 | [2] 0.01 | [3] -0.012 | [4] -0.004 | [5] 0.064

CSNK2A2 (UniProt P19784)
inactive: [1] -0.02 | [2] -0.033 | [3] -0.213 | [4] 0.038 | [5] 0.015

CUL4A (UniProt Q13619)
inactive: [1] -0.019 | [2] 0.021 | [3] -0.038 | [4] 0.009 | [5] -0.025

CRTAP (UniProt O75718)
inactive: [1] 0.032 | [2] -0.045 | [3] -0.009 | [4] 0.045 | [5] 0.084

CWF19L1 (UniProt Q69YN2)
inactive: [1] 0.018 | [2] 0.002 | [3] 0.011 | [4] 0.001 | [5] 0.014

3 neighbouring entries from above, for reference:
CUTC (UniProt Q9NTM9)
inactive: [1] 0.018 | [2] 0.057 | [3] 0.012 | [4] -0.006 | [5] -0.042

CTCFL isoform 7 (UniProt Q8NI51)
inactive: [1] 0.002 | [2] 0.049

CT45A10 (UniProt P0DMU9)
inactive: [1] 0.019 | [2] 0.01 | [3] -0.012 | [4] -0.004 | [5] 0.064

Later entries.

CRTC3 (UniProt Q6UUV7)
inactive: [1] 0.046 | [2] 0.146 | [3] -0.1 | [4] 0.063

CREG1 (UniProt O75629)
inactive: [1] -0.013 | [2] 0.032 | [3] -0.034 | [4] 0.02 | [5] 0.022

CSAD isoform 3 (UniProt Q9Y600)
inactive: [1] -0.081 | [2] 0.137

CYB561A3 isoform 2 (UniProt Q8NBI2)
inactive: [1] 0.026 | [2] 0.016 | [3] 0.012 | [4] -0.225 | [5] -0.24

CXCL14 (UniProt O95715)
inactive: [1] 0.002 | [2] -0.088 | [3] 0.128

CUEDC2 (UniProt Q9H467)
inactive: [1] 0.074 | [2] 0.019 | [3] -0.017 | [4] 0.013 | [5] 0.11

CTNNA1 (UniProt P35221)
inactive: [1] 0.001 | [2] 0.033 | [3] -0.006 | [4] -0.01 | [5] -0.019

CTNND1 isoform 3 (UniProt O60716)
inactive: [1] -0.021 | [2] 0.035 | [3] 0.058 | [4] 0.036 | [5] 0.028

CT47B1 (UniProt P0C2W7)
inactive: [1] -0.2 | [2] 0 | [3] -0.14 | [4] -0.073

CTDSP1 isoform 3 (UniProt Q9GZU7)
inactive: [1] 0.033 | [2] -0.036

CUL5 (UniProt Q93034)
inactive: [1] 0.001 | [2] 0.011 | [3] 0.003 | [4] 0.022 | [5] -0.02

CSRP3 (UniProt P50461)
inactive: [1] 0.014 | [2] -0.115 | [3] 0.049 | [4] -0.055 | [5] -0.445

CYFIP1 (UniProt Q7L576)
inactive: [1] -0.011 | [2] 0.004 | [3] 0.04 | [4] 0.002 | [5] 0

CUL2 isoform 2 (UniProt Q13617)
inactive: [1] 0.004 | [2] 0.008 | [3] 0.014 | [4] 0.036 | [5] 0.014

CSTF2 (UniProt P33240)
inactive: [1] -0.027 | [2] 0.021 | [3] 0.055 | [4] -0.032 | [5] 0.01

CTDP1 (UniProt Q9Y5B0)
inactive: [1] -0.034 | [2] 0.017 | [3] -0.017 | [4] -0.035 | [5] 0.045

CYHR1 (UniProt E9PJD7)
inactive: [1] -0.031 | [2] 0.063 | [3] -0.104 | [4] 0.021 | [5] 0.015

CUL4B (UniProt Q13620)
inactive: [1] 0.004 | [2] 0.005 | [3] 0.001 | [4] -0.044 | [5] -0.063

CSPG5 isoform 2 (UniProt O95196)
inactive: [1] 0.126 | [2] 0.165 | [3] -0.138

CSE1L (UniProt P55060)
inactive: [1] -0.033 | [2] 0.034 | [3] 0.022 | [4] -0.001 | [5] 0.028

CTR9 (UniProt Q6PD62)
inactive: [1] 0.008 | [2] 0.06 | [3] -0.007 | [4] 0.036 | [5] -0.002

CTNNBL1 (UniProt Q8WYA6)
inactive: [1] -0.003 | [2] 0 | [3] 0.004 | [4] -0.087 | [5] 0.073

CSNK1G3 (UniProt Q9Y6M4)
inactive: [1] -0.041 | [2] 0.017 | [3] -0.013 | [4] 0.006 | [5] -0.03

CYBA (UniProt P13498)
inactive: [1] -0.075 | [2] -0.032 | [3] 0.01 | [4] -0.015 | [5] 0.04

CRELD1 isoform 2 (UniProt Q96HD1)
inactive: [1] 0.055 | [2] 0.006 | [3] 0.01 | [4] 0.017 | [5] -0.037

CTC1 (UniProt Q2NKJ3)
inactive: [1] -0.052 | [2] 0.062 | [3] 0.038 | [4] 0.044 | [5] -0.002

CRLF3 (UniProt Q8IUI8)
inactive: [1] 0.022 | [2] -0.022 | [3] 0.005 | [4] -0.006 | [5] -0.004

CTSH (UniProt P09668)
inactive: [1] 0.007 | [2] -0.039 | [3] -0.002 | [4] 0.04 | [5] -0.032

CSTB (UniProt P04080)
inactive: [1] -0.031 | [2] -0.018 | [3] -0.032 | [4] -0.071 | [5] -0.146

CWC27 (UniProt Q6UX04)
inactive: [1] 0.022 | [2] 0.003 | [3] 0.018 | [4] -0.005 | [5] 0.02

CYB561 (UniProt P49447)
inactive: [1] 0.008 | [2] -0.14 | [3] -0.062 | [4] 0 | [5] -0.146

CTSL (UniProt P07711)
inactive: [1] -0.004 | [2] -0.016 | [3] -0.024 | [4] -0.007 | [5] -0.026

CTSB (UniProt P07858)
inactive: [1] 0.006 | [2] 0.01 | [3] 0.012 | [4] 0.002 | [5] -0.016

CRTC1 (UniProt Q6UUV9)
inactive: [1] -0.008 | [2] 0.03 | [3] 0.029 | [4] 0.015 | [5] -0.072

CTSC (UniProt P53634)
inactive: [1] -0.042 | [2] 0.023 | [3] 0.014 | [4] -0.06 | [5] -0.065

CRKL (UniProt P46109)
inactive: [1] 0.022 | [2] 0.006 | [3] -0.001 | [4] -0.031 | [5] -0.055

CRYZL1 (UniProt O95825)
inactive: [1] 0.023 | [2] 0.016 | [3] -0.002 | [4] -0.023 | [5] -0.011

CSNK1G2 (UniProt P78368)
inactive: [1] 0.003 | [2] -0.051 | [3] -0.051 | [4] -0.1 | [5] -0.179

CWC15 (UniProt Q9P013)
inactive: [1] 0.011 | [2] 0.052 | [3] -0.061 | [4] -0.039 | [5] -0.008

CTBP2 isoform 2 (UniProt P56545)
inactive: [1] -0.038 | [2] 0.003 | [3] 0.039 | [4] 0.005 | [5] -0.004

CST3 (UniProt P01034)
inactive: [1] -0.022 | [2] 0.039 | [3] 0.029 | [4] -0.001 | [5] 0.056
